Data taken from paper PMC7177849, “Gut Microbial Catabolites of Tryptophan Are Ligands and Agonists of the Aryl Hydrocarbon Receptor: A Detailed Characterization” (International Journal of Molecular Sciences, 2020).

Experiment: Levels of tryptophan in cell culture media by HPLC
Conditions: culture medium containing 10% serum; regardless of the cell-type

With `N[C@@H](Cc1c[nH]c2ccccc12)C(=O)O` [Trp, tryptophan] the “Trp concentration in culture medium after 24 h of incubation” value was “approx. 60 µM”.
